According to paper PMC6561935, “Hsp90 middle domain phosphorylation initiates a complex conformational program to recruit the ATPase-stimulating cochaperone Aha1” (Nature Communications, 2019):
Results are given in words; binding and its absence hold for the method and conditions named. For some of these results: Binding seen in cells or lysates may run through a third protein. Some binding calls cover weakened binding; strength is not graded here.

Tests used:
[1] = molecular target: FLAG-tagged Aha1, wild-type, full length (human) (UniProt O95433); assay: co-IP; FLAG-Aha1 (wild type, point mutants or single domains) co-expressed with HA-Hsp90 (wild type or mutants); anti-FLAG resin; Hsp90 detected with anti-HA; lysis and wash buffer with or without 10 mM molybdate where indicated
[2] = molecular target: FLAG-tagged Aha1-N (human) (UniProt O95433); assay: as above
[3] = molecular target: FLAG-tagged Aha1-C (human) (UniProt O95433); assay: as above
[4] = molecular target: Hsp90 dimer with W320A in the protomer opposite to the one harboring Y313E (human) (UniProt P07900); assay: co-IP; two-round (sequential) immunoprecipitation from 293A cells co-expressing HA- and FLAG-tagged Hsp90: anti-HA resin, elution with HA peptide, then anti-FLAG resin; co-precipitated endogenous Aha1 detected by western blot
[5] = molecular target: heterodimer wild-type Hsp90/Hsp90-Y313E (human) (UniProt P07900); assay: as above
[6] = molecular target: FLAG-tagged Hsp90-E47A (human) (UniProt P07900); assay: co-IP; FLAG-Hsp90 (wild type or mutants) expressed in 293A or HEK293 cells and precipitated with M2 anti-FLAG resin; co-precipitated endogenous Aha1, p23 and p60Hop detected by western blot; Hepes buffer pH 7.2, 100 mM NaCl, 1 mM MgCl2, 0.5% Nonidet P40, 4 °C
[7] = molecular target: FLAG-tagged Hsp90-Y313E (human) (UniProt P07900); assay: as above
[8] = molecular target: FLAG-tagged Hsp90-E47A/H210A/Y313E (human) (UniProt P07900); assay: as above
[9] = molecular target: FLAG-tagged Hsp90 (human Hsp90α), wild-type (human) (UniProt P07900); assay: as above
[10] = molecular target: FLAG-tagged Hsp90-H210A/Y313E (human) (UniProt P07900); assay: as above
[11] = molecular target: FLAG-tagged Hsp90-R400A/Y313E (human) (UniProt P07900); assay: as above
[12] = molecular target: FLAG-tagged Hsp90-R400A (human) (UniProt P07900); assay: as above
[13] = molecular target: FLAG-tagged Hsp90-E47A/Y313E (human) (UniProt P07900); assay: as above
[14] = molecular target: FLAG-tagged Aha1-K208A/K212A (full-length) (human) (UniProt O95433); assay: co-IP; FLAG-Aha1 (wild type or point mutants) expressed in 293A cells and precipitated with anti-FLAG resin; co-precipitated endogenous Hsp90 detected by western blot; Hepes buffer pH 7.2, 100 mM NaCl, 1 mM MgCl2, 0.5% Nonidet P40, 4 °C
[15] = molecular target: FLAG-tagged Aha1-E260A/D263A (full-length) (human) (UniProt O95433); assay: as above
[16] = molecular target: FLAG-tagged Aha1, wild-type, full length (human) (UniProt O95433); assay: as above
[17] = molecular target: FLAG-tagged Aha1-K273A (full-length) (human) (UniProt O95433); assay: as above
[18] = molecular target: purified human Hsp90α, wild-type (human) (UniProt P07900); assay: ITC; Supplementary Table 3, with 2 mM AMPPNP in cell and syringe: Hsp90 30 μM in the cell, Aha1 constructs 380-450 μM in the syringe; 36 °C; 20 mM Tris pH 7.5, 100 mM NaCl, 0.5 mM EDTA, 5 mM MgSO4, 1 mM TCEP; both purified
[19] = molecular target: purified human Hsp90α-Y313E (human) (UniProt P07900); assay: ITC; Supplementary Table 3, without AMPPNP: Hsp90 30 μM in the cell, Aha1 constructs 380-450 μM in the syringe; 36 °C; 20 mM Tris pH 7.5, 100 mM NaCl, 0.5 mM EDTA, 5 mM MgSO4, 1 mM TCEP; both purified
[20] = molecular target: purified human Hsp90α, wild-type (human) (UniProt P07900); assay: as above
[21] = molecular target: purified human Hsp90α-Y313E (human) (UniProt P07900); assay: NMR titration; 1H-13C HMQC (methyl-TROSY) of 2H/13C Ile-labelled Hsp90 with 2H-labelled Aha1 construct at half the Hsp90 concentration; 25 °C; 20 mM deuterated Tris pH 7.5, 100 mM NaCl, 0.5 mM EDTA, 1.5 mM DTT, 100% D2O; both purified
[22] = molecular target: purified human Hsp90α, wild-type (human) (UniProt P07900); assay: as above
[23] = molecular target: purified human Hsp90α-Y313E (human) (UniProt P07900); assay: ITC; Supplementary Table 3, with 2 mM AMPPNP in cell and syringe: Hsp90 30 μM in the cell, Aha1 constructs 380-450 μM in the syringe; 36 °C; 20 mM Tris pH 7.5, 100 mM NaCl, 0.5 mM EDTA, 5 mM MgSO4, 1 mM TCEP; both purified

For “HA-tagged Hsp90 (human Hsp90α), wild-type (from UniProt P07900 1-732)”, the binding [1] was “binds”, the binding [2] was “binds” and the binding [3] was “binds”.
With “HA-tagged Hsp90-D93A (from UniProt P07900 1-732)” the binding [2] was “binds” and the binding [3] was “no binding”.
For “HA-tagged Hsp90-V411E (from UniProt P07900 1-732)”, the binding [2] was “no binding”.
With “HA-tagged Hsp90-W320A (from UniProt P07900 1-732)” the binding [2] was “binds”.
“HA-tagged Hsp90-Y313E (from UniProt P07900 1-732)” was tested, and the binding [1] was “binds”, the binding [2] was “binds” and the binding [3] was “binds”.
For “HA-tagged Hsp90-Y313F (from UniProt P07900 1-732)”, the binding [1] was “binds” and the binding [3] was “binds”.
For “endogenous Aha1 (from UniProt O95433 1-338)”, the binding [4] was “binds”, the binding [5] was “binds” and the binding [6] was “binds”. For the same substance, the binding [7] was “binds”, the binding [8] was “binds” and the binding [9] was “binds”. The binding [10] was “binds”, the binding [11] was “binds” and the binding [12] was “no binding”. For the same substance, the binding [13] was “binds”.
“endogenous Hsp90 (wild-type) (from UniProt P07900 1-732)” was tested, and the binding [14] was “binds”, the binding [15] was “binds” and the binding [16] was “binds”. For the same substance, the binding [17] was “binds”.
For “purified Aha1-C (from UniProt O95433 201-338) (domain or fragment)”, the binding [18] was “binds”, the binding [19] was “binds” and the binding [20] was “binds”. The binding [21] was “binds” and the binding [22] was “binds”.
For “purified Aha1-N (from UniProt O95433 1-162) (domain or fragment)”, the binding [23] was “binds”, the binding [18] was “binds” and the binding [19] was “binds”. For the same substance, the binding [20] was “binds”, the binding [21] was “binds” and the binding [22] was “binds”.
